# Results of single-concentration screens

Protein sequences, listed by entry. Tags and fused reporters are not part of them. Residues count along the entry.
UniProt A4I591, 1-473: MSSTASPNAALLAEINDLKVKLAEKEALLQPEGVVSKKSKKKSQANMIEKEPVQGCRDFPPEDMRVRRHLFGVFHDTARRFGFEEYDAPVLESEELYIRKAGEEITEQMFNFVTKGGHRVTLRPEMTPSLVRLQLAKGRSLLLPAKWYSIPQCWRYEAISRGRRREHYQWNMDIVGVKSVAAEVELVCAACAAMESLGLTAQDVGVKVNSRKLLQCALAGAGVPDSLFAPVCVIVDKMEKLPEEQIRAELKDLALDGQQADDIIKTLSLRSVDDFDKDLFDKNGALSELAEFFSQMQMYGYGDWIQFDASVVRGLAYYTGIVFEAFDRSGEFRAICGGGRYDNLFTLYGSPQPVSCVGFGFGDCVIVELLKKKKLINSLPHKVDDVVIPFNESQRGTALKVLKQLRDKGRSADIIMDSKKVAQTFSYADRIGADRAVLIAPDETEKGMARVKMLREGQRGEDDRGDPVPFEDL
UniProt P9WFT3, whole entry: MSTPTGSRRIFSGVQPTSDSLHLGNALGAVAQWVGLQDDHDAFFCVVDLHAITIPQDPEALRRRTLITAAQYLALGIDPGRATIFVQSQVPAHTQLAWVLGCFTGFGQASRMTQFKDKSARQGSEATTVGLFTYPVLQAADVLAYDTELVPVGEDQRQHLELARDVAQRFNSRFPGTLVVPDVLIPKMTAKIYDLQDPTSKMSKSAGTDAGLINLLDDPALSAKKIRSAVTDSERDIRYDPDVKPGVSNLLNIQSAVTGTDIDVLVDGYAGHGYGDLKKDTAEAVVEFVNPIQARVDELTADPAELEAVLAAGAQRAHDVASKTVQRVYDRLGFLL
UniProt P9WNZ1, whole entry: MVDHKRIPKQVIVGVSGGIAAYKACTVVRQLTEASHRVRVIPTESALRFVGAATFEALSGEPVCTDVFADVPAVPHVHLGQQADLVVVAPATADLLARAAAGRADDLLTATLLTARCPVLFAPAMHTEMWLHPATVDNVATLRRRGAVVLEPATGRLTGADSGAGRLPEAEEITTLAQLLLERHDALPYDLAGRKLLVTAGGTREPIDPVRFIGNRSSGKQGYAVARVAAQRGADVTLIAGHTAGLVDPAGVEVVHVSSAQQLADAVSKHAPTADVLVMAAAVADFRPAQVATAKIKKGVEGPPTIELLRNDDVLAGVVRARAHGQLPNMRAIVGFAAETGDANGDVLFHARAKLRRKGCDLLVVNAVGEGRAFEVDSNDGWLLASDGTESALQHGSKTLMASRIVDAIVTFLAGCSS

Each number is a percent effect as filed. The record does not define 0% and 100%; most values in the screen are far below 50% and negative numbers occur (in some assays of this library far below -100). This is an unselected part of the compounds tested. A dash means the value is not listed here; it may have been measured.

LiHisRS: 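Histidine-tRNA ligase, Leishmania infantum (UniProt A4I591). Enzyme assay of histidyl-tRNA synthetase; the read-out is not stated. Compounds at 30 µM. Direction is inferred from retests: higher values go with stronger inhibition. The assay is labelled LdHisRS but filed under L. infantum. About 69,000 compounds were tested under these conditions; 0.6% (about 410) showed 50% or more at least once.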
MtTrpRS: 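Enzyme assay of tryptophanyl-tRNA synthetase; the read-out is not stated. Target: Tryptophan-tRNA ligase, Mycobacterium tuberculosis (UniProt P9WFT3). Compounds at 10 µM. Direction is not recorded; retested compounds ran higher, which suggests that high means inhibition. Size under these conditions: about 65,000 compounds, about 64 of them at 50% or above in at least one test.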
Toxoplasma: 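Assay of Toxoplasma gondii numbers, read through their beta-galactosidase reporter with a colour substrate. Compounds at 10 µM. Higher reads as fewer parasites (inferred from which compounds were picked for retests). Of about 67,000 compounds tested this way, about 260 (0.38%) reached 50% or more in at least one test.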
CoaBC: 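Coenzyme A biosynthesis protein CoaBC, Mycobacterium tuberculosis (UniProt P9WNZ1). Enzyme assay of CoaBC with a phosphate dye (Biomol Green) read at 650 nm. Compounds at 30 µM. Higher reads as stronger inhibition, judged from the few compounds that gave an IC50. Most strong results did not repeat in a second test. Of about 67,000 compounds tested this way, about 40 (0.06%) reached 50% or more in at least one test.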

SMILES,LiHisRS,MtTrpRS,Toxoplasma,CoaBC
O=C(c1ccc(Cl)cc1-n1cnnn1)N1CCC2(CC1)OCCO2,20%,1.898%,-15.51%,-3.418%
CN(C)CCN1CCc2c(nnn2C)C1COCc1ccccc1 (centres undefined),-5%,8.87%,-,0.618%
Cc1cc(N2CCOCC2)ccc1NC(C)c1nc(C(C)C)no1 (centres undefined),39.13%,-2.72%,-0.8403%,0.2421%
Cc1cc(C)cc(CCC(=O)N(C)CCc2cn[nH]c2)c1,6.557%,-2.074%,17.37%,6.1%
O=C1[C@H]2CN(Cc3cccs3)C[C@H]2CN1c1cncnc1,6.604%,-1.408%,-,9.091%
Cc1cccc(NC(C)C(=O)Nc2nccs2)c1 (centres undefined),-1.124%,-1.537%,8.085%,-7.292%
Cc1cccc(CNc2cc(C3CCCNC3)ccn2)n1 (centres undefined),4.317%,-0.651%,-,-2.632%
Cn1nc(CN2CCCCC2)c2c1CN(C(=O)c1cccc(C#N)c1)C2.O=C(O)C(F)(F)F,-,-,-1.438%,-
O=C(CCc1c[nH]cn1)N1CC[C@@H](c2ccc3ccccc3c2)[C@H](O)C1,16.5%,7.46%,-4.515%,-4.911%
O=C(Nc1cccnc1-n1cc(Cl)cn1)C1CCCCC1,18.42%,2.871%,-21.86%,2.778%
Cc1nccc(-c2cccc(NCC(=O)N3CCCC(C)C3)c2)n1 (centres undefined),14.91%,0.5303%,2.565%,3.52%
O=C(c1ccncc1)N1CCc2onc(CN3CCCC3)c2C1,-2.564%,22.07%,22.4%,-2.083%
COc1ccc(C[C@H]2CN(C(=O)c3ccncc3)CC[C@@H]2OC)cc1.O=C(O)C(F)(F)F,-,-,3.59%,-
Clc1ccc(OCCNCCn2cccn2)cc1,4.348%,18.27%,8.886%,9.033%
[H][C@@]12CCN(C(=O)COc3ccc(C)cc3)C[C@]1(COC)CCO2,-,-,22.49%,-
CCc1nc(C2CCCN2Cc2nnc(Cc3ccccc3)o2)no1 (centres undefined),10.67%,2.737%,9.982%,-4.872%
COc1ccccc1C(C)CNC(=O)c1c(C)nn(C)c1OC (centres undefined),16%,-5.706%,-6.095%,8.264%
Cc1nnc2n1CCN(CCOc1ccccc1C#N)C2,-2.609%,16.23%,2.259%,2.926%
CN(CC1CN(Cc2cn3ccsc3n2)CCO1)c1cccnn1 (centres undefined),18.67%,-1.798%,2.304%,14.87%
Cc1nn(C)c2nc(N3CCCCC3c3ccc(F)cc3)sc12 (centres undefined),41.86%,4.844%,-0.2782%,8.231%
CCOC(=O)c1cc(C(C)(O)CCC=C(C)C)on1 (centres undefined),4.301%,7.083%,-2.193%,-2.806%
O=C1CCc2cc(NC(=O)N3CCCN(Cc4cccs4)CC3)ccc21,28.57%,-2.183%,1.175%,-13.61%
CCn1cncc1CNC(=O)c1ccc(C2CCCN2C(=O)COC)s1 (centres undefined),16.33%,3.73%,6.638%,-4.822%
CC(=O)N1CCOC(CCc2cc(-c3c(C)noc3C)ncn2)C1 (centres undefined),9.859%,-2.77%,18.27%,-9.371%
Cc1nn(C)c(C)c1-c1ccnc(N(C)Cc2noc(C(C)C)n2)n1,35.21%,3.767%,6.019%,-3.204%
Cc1ccc(CN2C[C@H]3CN(CC4CCN(C)CC4)C(=O)[C@H]3C2)s1,23.3%,-1.536%,-,0.2545%
Cn1cc(C[C@H]2[C@H](O)CCN2C(=O)C2CCOCC2)cn1,15.04%,-0.239%,8.578%,12.84%
Cc1ncsc1CCN(C)C(=O)c1ccc(Cn2cnnn2)cc1,15.25%,-2.76%,-7.62%,4.391%
CC(=O)c1cccc(NC(=O)CN2CCCCC2C2OCCO2)c1 (centres undefined),17.31%,2.814%,1.036%,9.317%
O=C(Cc1cccs1)N1CC[C@H]2[C@H]1CCN2Cc1cccnc1,15.38%,-3.924%,-,6.049%
Cc1ncoc1C(=O)N1CCn2c(COCC3CC3)cnc2C1C (centres undefined),19.61%,-0.4794%,-14.67%,-2.445%
COc1ccc(OCc2sc(C3(O)CCCNCC3)nc2C)cc1 (centres undefined),16.67%,-0.08361%,-,-5.278%
c1c(CN2CCOCC2)nc2n1CCN(CC1CC1)C2,7.547%,-,16.5%,3.902%
COCCc1noc(C2CCN(S(=O)(=O)c3cccs3)CC2)n1,-4.274%,13.21%,-1.127%,-5.882%
c1cc2c(cc1CN1CCCC3(CCOC3)C1)OCO2 (centres undefined),-3.614%,0.9517%,-7.659%,2.405%
O=C(c1cnn[nH]1)N(CCCO)Cc1cccnc1,12.86%,-3.43%,-5.243%,4.713%
CCN1CC2(CC1=O)CN(C(=O)NC)CCN(S(C)(=O)=O)C2 (centres undefined),15.38%,-3.004%,2.606%,-
CC(CNS(=O)(=O)c1cccc(Cl)c1)N1CCN(C)CC1 (centres undefined),9.677%,-2.004%,4.697%,0.1218%
CCNc1nc(-c2cccnc2)c(-c2ccnc(NS(C)(=O)=O)n2)s1,34.29%,-,-26.67%,4.458%
COc1ccc(C)cc1-n1cnnc1C1CCCN(C)C1 (centres undefined),17.95%,17.67%,-3.662%,12.18%
CC(C)c1nc(C(=O)N2C[C@H]3CC[C@@H]2CN(C2CCOCC2)C3)cs1,17.71%,-3.961%,-,5.656%
O=C(NCc1ccc(OCC2CC2)nc1)c1c(F)cccc1F,11.43%,-3.072%,-1.357%,4.723%
CNc1ncc(CN(C)C(=O)c2ccccc2C2CCNC2)cn1 (centres undefined),4.167%,-0.7276%,4.799%,1.285%
N#Cc1ccc(N2CCCN(CC(N)=O)CC2)cc1,15.79%,-6.174%,-5.642%,2.823%
CC(CNC(=O)c1cnccn1)Oc1ccc(F)cc1 (centres undefined),5.31%,-1.434%,-0.4394%,5.626%
CCN(CC)C1CCN(C(=O)c2cc(CC(C)C)nn2CC)C1 (centres undefined),9.091%,-0.4036%,-6.64%,0.2016%
COc1cccc(-c2cc(C(=O)NCCCC(F)(F)F)[nH]n2)c1,31.52%,6.065%,5.256%,4.479%
[H][C@]12CC[C@]([H])(CN(Cc3cscn3)C1)N(Cc1cc(C(C)(C)C)[nH]n1)C2,-,-,-32.24%,-
CC(C)c1nnc2n1CCN(C(=O)c1ccc3c(c1)COC3)C2,10.26%,1.21%,5.036%,6.237%
COc1ccc(C(C(=O)O)N(C)CCN2CCOCC2)c(C)c1 (centres undefined),10%,0.5942%,-7.015%,5.782%
CCCc1nnc(NC(C)c2ccc3c(c2)OCCO3)o1 (centres undefined),-2.381%,-0.07468%,20.67%,-1.72%
Cc1cc(C(=O)N2C[C@@H]3COC[C@]3(c3nnc(C(C)C)o3)C2)on1,15.07%,0.7229%,-,3.1%
CN(C)S(=O)(=O)N1CCN(Cc2ccnc(N3CCCC3)n2)CC1,1.042%,-,2.554%,1.225%
c1cncc(CN2CCc3ncnc(C4CC4)c3CC2)c1,10.53%,11.14%,-,1.961%
O=C(O)C(F)(F)F.[H][C@@]12CCC(=O)N(c3cnn(C)c3)[C@]1([H])CCN2Cc1nccs1,-,-,16.23%,-
CCn1ncc2c1CCCC2NCc1cccc2c1OCO2 (centres undefined),2.609%,5.751%,-2.786%,4.707%
NC(=O)CN1CCCC(C(=O)N2CCC(Oc3ncccn3)CC2)C1 (centres undefined),0%,1.854%,7.31%,-1.341%
Cc1ocnc1C(=O)Nc1ccc(-c2nnc(N(C)C)o2)cc1,7.292%,-3.818%,-1.775%,6.25%
COCCOc1ccc(NC(=O)N2CCOC(C(N)=O)C2)cc1F (centres undefined),22.34%,3.357%,-44.45%,8.239%
COc1ccc2nc3n(c2c1)[C@@H](CNC(=O)c1cncnc1)COC3,9.459%,-4.628%,2.863%,-0.6623%
O=C(c1ccc(Cl)o1)N1CCCN(Cc2cscn2)CC1,13.33%,2.424%,9.037%,0.7692%

Once more, the final 6:

| SMILES | LiHisRS | MtTrpRS | Toxoplasma | CoaBC |
|---|---|---|---|---|
| `CCn1ncc2c1CCCC2NCc1cccc2c1OCO2` (centres undefined) | 2.609% | 5.751% | -2.786% | 4.707% |
| `NC(=O)CN1CCCC(C(=O)N2CCC(Oc3ncccn3)CC2)C1` (centres undefined) | 0% | 1.854% | 7.31% | -1.341% |
| `Cc1ocnc1C(=O)Nc1ccc(-c2nnc(N(C)C)o2)cc1` | 7.292% | -3.818% | -1.775% | 6.25% |
| `COCCOc1ccc(NC(=O)N2CCOC(C(N)=O)C2)cc1F` (centres undefined) | 22.34% | 3.357% | -44.45% | 8.239% |
| `COc1ccc2nc3n(c2c1)[C@@H](CNC(=O)c1cncnc1)COC3` | 9.459% | -4.628% | 2.863% | -0.6623% |
| `O=C(c1ccc(Cl)o1)N1CCCN(Cc2cscn2)CC1` | 13.33% | 2.424% | 9.037% | 0.7692% |

Measurements from “University of Dundee, Small-Polar-MMV Screening Library” (2021), ChEMBL document CHEMBL3988442.